Experimental findings from paper PMC8800269 are described below.

The experiment addresses T1, Leukemia inhibitory factor receptor (LIFR), endogenous in HK2 cells (human (endogenous in HK2)) (UniProt P42702).
T1 sequence: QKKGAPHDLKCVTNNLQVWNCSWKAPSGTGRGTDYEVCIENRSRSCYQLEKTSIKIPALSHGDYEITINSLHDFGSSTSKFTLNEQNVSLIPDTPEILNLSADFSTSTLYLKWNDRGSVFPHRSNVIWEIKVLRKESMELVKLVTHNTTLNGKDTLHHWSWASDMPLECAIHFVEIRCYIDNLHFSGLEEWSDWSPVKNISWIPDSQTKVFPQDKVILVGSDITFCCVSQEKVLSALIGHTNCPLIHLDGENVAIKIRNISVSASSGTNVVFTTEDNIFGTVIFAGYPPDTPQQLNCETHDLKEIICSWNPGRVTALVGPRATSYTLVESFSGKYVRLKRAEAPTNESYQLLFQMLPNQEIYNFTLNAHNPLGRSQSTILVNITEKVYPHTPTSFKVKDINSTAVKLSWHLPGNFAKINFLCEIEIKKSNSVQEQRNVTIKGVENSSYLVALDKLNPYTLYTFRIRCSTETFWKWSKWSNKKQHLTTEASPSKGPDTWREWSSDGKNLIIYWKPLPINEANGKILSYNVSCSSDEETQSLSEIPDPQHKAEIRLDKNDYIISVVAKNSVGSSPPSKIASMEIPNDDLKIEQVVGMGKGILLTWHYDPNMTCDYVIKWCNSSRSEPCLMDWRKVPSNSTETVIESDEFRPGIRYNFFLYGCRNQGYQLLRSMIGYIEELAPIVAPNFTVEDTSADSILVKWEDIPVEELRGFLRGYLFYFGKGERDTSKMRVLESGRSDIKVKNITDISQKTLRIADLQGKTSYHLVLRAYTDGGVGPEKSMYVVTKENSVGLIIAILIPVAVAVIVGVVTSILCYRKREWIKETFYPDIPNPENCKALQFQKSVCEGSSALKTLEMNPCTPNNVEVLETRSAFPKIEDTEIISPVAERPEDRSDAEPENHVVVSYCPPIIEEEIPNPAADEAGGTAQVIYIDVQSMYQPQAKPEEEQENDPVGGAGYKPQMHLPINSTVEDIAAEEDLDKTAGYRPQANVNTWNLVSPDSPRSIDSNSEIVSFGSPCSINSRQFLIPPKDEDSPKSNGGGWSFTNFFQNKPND
In words: co-IP; lysates of HK-2 cells (ILEI-overexpressing groups, or cells treated with 5 ng/ml TGF-β1 for 48 h) incubated with protein A-agarose beads and anti-ILEI or anti-LIFR antibody at 4 °C; immunoblot with anti-LIFR and anti-ILEI. For orientation: In western blotting, separated proteins are transferred to a membrane and probed.

Results are given in words; binding and its absence hold for the method and conditions named. In cells and extracts the contact can be indirect. Some entries that bind do so weakly or less than the wild type.

B1: Interleukin-like EMT inducer (ILEI), overexpressed from pcDNA3.1-ILEI (protein, UniProt Q92520 25-227)
chain: QVFEIKMDASLGNLFARSALDTAARSTKPPRYKCGISKACPEKHFAFKMASGAANVVGPKICLEDNVLMSGVKNNVGRGINVALANGKTGEVLDTKYFDMWGGDVAPFIEFLKAIQDGTIVLMGTYDDGATKLNDEARRLIADLGSTSITNLGFRDNWVFCGGKGIKTKSPFEQHIKNNKDTNKYEGWPEVVEMEGCIPQKQD
Take B1: the binding result is recorded as “binds”.

B2: Interleukin-like EMT inducer (ILEI), endogenous in HK2 cells (protein, UniProt Q92520 25-227)
chain: B1 chain
Turning to B2, the binding result is given as “binds”.
